Results reported in the NIST ThermoML archive (doi:10.1021/acs.jced.8b00370).
± gives the expanded uncertainty stated by the source.

Conditions: 308.15 K; 100 kPa; Liquid; Vibrating tube method

mass density: 994.061 ± 2 kg/m3
SMILES: O [water]
